In PubChem BioAssay AID540303 (National Center for Advancing Translational Sciences (NCATS), 2011):
About 1,000 (0.3%) of roughly 330,000 compounds were called active. This list was built around the results that the source calls inconclusive (neither active nor inactive); the mix of calls is not that of the screen. Calls come from the whole dose curve; as a rule, active = well fitted inhibition curve with a large enough effect; inconclusive = small, poorly fitted or top-dose-only effect; inactive = no such curve, though single readings can be large or run the other way; tested in mouse RAW 264.7 cells. A potency beside an inconclusive call is a rough fit, not a confirmed value.

Assay: qHTS for Inhibitors of Cell Surface uPA Generation; note: nearly all actives have a fitted effect of over 55% in size
Conditions: cell surface uPA generation assay; series mostly up to 38.3 µM; activity change, negative = inhibition: at the top concentration
In short: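 RAW 264.7 cells (4000/well) were plated overnight at 37 C and then given compounds in a 1:5 series (up to 38.3 uM final) plus reagent for 24 h. Intracellular ATP was measured by ATP-Lite luminescence and stays elevated when uPA-dependent LF entry is blocked.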
% is set by controls: 0 for no effect and ±100 for the full control effect; potency is the fitted concentration of half-maximal effect.

| SMILES | Potency | activity change, negative = inhibition |
| --- | --- | --- |
| CCCCCCCC/C=C\CCCCCCCC(=O)NCCc1ccc(O)c(O)c1 | active: 3.16 µM | – |
| O=C(NC1CCCCC1)c1n[nH]c2c1CCCCC2 | active: 3.16 µM | – |
| CN(C)CCNC(=O)c1c(NC(=O)c2ccccc2)sc2c1CCCC2 | inconclusive: 22.4 µM [inhibitor, single point] | – |
| CCCOc1cccc(C(=O)N/N=C/c2ccoc2)c1 | – | inactive: -21.5% |
| COc1cc(/C=C(\C#N)c2nc3ccc(C)cc3[nH]2)c([N+](=O)[O-])cc1OC | – | inactive: 3.98% |
| CC(C)(CNC(=O)c1ccccc1F)CNC(=O)c1ccccc1F | – | inactive: 8.1% |
| CC(=O)Nc1ccc(S(=O)(=O)Nc2ccc3c(c2)CCC3)cc1 | – | inactive: 0.992% |
| CNC(=O)c1ccc(NC(=O)Cc2ccc(S(=O)(=O)N3CCOCC3)s2)cc1 | – | inactive: 0.206% |
| NS(=O)(=O)c1ccc(NC(=S)N2CCN(c3ccccc3Cl)CC2)cc1 | – | inactive: 0.597% |
| CCOC(=O)c1cc([N+](=O)[O-])sc1NC(=O)c1ccc(S(=O)(=O)N2CC3(C)CC2CC(C)(C)C3)cc1 (configuration not stated) | – | inactive: 10% |
| Cc1ccc(S(=O)(=O)Cc2ccc(C(=O)N3CCN(c4ccc(F)cc4)CC3)o2)cc1 | inconclusive: 28.2 µM [inhibitor, single point] | – |
| C[C@]12CC[C@@H]3c4ccc(O)cc4CC[C@H]3[C@@H]1CCC2=O | inconclusive: 12.6 µM [inhibitor, single point] | – |
| COC(=O)c1c(-c2ccc(S(C)(=O)=O)cc2)sc2cc(OC)ccc12 | inconclusive: 7.94 µM [inhibitor, partial curve] | – |
| COc1ccc(CNc2ncnc3cc(OC)c(OC)cc23)cc1 | – | inactive: -0.686% |
| O=C1CCN(Cc2cccnc2)CCN1[C@H](CO)Cc1ccccc1 | inconclusive: 3.55 µM [inhibitor, partial curve, poor fit] | – |
| CCOc1nc2cnccc2n(CC(=O)Nc2c(C)cccc2CC)c1=O | inconclusive: 7.08 µM [inhibitor, single point] | – |
| COc1ccc(S(=O)(=O)Cc2ccc(C(=O)NCc3cccnc3)o2)cc1 | inconclusive: 5.62 µM [inhibitor, full curve, poor fit] | – |
| CCC/C(C#Cc1ccsc1)=C1/c2ccccc2C(=O)N1c1ccccc1 | inconclusive: 8.91 µM [inhibitor, partial curve] | – |
| COC(=O)[C@]1(Cc2ccccc2)N[C@H](c2ccc(-c3cccc(Cl)c3)cc2)[C@@H]2C(=O)N(C)C(=O)[C@@H]21 | inconclusive: 11.2 µM [inhibitor, single point] | – |
| CCCCC(c1nnnn1C1CCCC1)N1CCN(C2CCCCC2)CC1 (configuration not stated) | – | inactive: -1.6% |
| Clc1cccc(/C=N/N2CCN(Cc3ccccc3)CC2)c1 | – | inactive: -1.25% |
| O=C(/C=C/c1ccc(S(=O)(=O)N2CCOCC2)cc1)NCCc1ccc(C(F)(F)F)cc1 | inconclusive: 10 µM [inhibitor, partial curve, poor fit] | – |
| COc1cccc(N/N=C(\C#N)S(=O)(=O)C(C)(C)C)c1 | – | inactive: 5.99% |

Sorted by length of the SMILES (low to high): part of the list above

| SMILES | Potency | activity change, negative = inhibition |
| --- | --- | --- |
| CCCOc1cccc(C(=O)N/N=C/c2ccoc2)c1 | – | inactive: -21.5% |
| O=C1CCN(Cc2cccnc2)CCN1[C@H](CO)Cc1ccccc1 | inconclusive: 3.55 µM [inhibitor, partial curve, poor fit] | – |
| CCOc1nc2cnccc2n(CC(=O)Nc2c(C)cccc2CC)c1=O | inconclusive: 7.08 µM [inhibitor, single point] | – |
| CC(=O)Nc1ccc(S(=O)(=O)Nc2ccc3c(c2)CCC3)cc1 | – | inactive: 0.992% |
| CNC(=O)c1ccc(NC(=O)Cc2ccc(S(=O)(=O)N3CCOCC3)s2)cc1 | – | inactive: 0.206% |

More entries:

| SMILES | Potency | activity change, negative = inhibition |
| --- | --- | --- |
| CCc1ccc(Nc2n[n+](-c3ccccc3)c(-c3cccc(Cl)c3Cl)s2)cc1 | inconclusive: 12.6 µM [inhibitor, single point] | – |
| CC(=O)C1=C(C)NC(SCC(=O)c2ccc(Cl)cc2Cl)=C(C#N)C1c1ccco1 (configuration not stated) | inconclusive: 10 µM [inhibitor, single point] | – |
| COc1ccccc1C(=O)Nc1c(C(=O)N(CCN(C)C)Cc2ccco2)oc2ccccc12 | inconclusive: 12.6 µM [inhibitor, partial curve, poor fit] | – |
| Cc1c(/C=C/C(=O)c2ccc(O)cc2)cnn1C | inconclusive: 17.8 µM [inhibitor, single point] | – |
| Oc1ccc2c(c1)OCC1(O)Cc3cc(O)c(O)cc3C21 (configuration not stated) | inconclusive: 22.4 µM [inhibitor, partial curve, poor fit] | – |
| CC1CC(Nc2ccccc2)c2ccccc2N1C(=O)c1ccccc1F (configuration not stated) | inconclusive: 6.31 µM [inhibitor, partial curve, poor fit] | – |
| O=C(NCCn1cc(SCc2ccc(F)cc2)c2ccccc21)c1c(F)cccc1F | active: 10 µM | – |
| CCCCCOc1ccc(Cn2ccnc2)cc1[N+](=O)[O-] | inconclusive: 28.2 µM [inhibitor, single point] | – |
| Cc1ccnc(NC(=O)c2ccc(Cl)s2)c1 | inconclusive: 8.91 µM [inhibitor, partial curve, poor fit] | – |
| O=C1c2ccccc2C(=O)c2[nH]cnc21 | inconclusive: 12.6 µM [inhibitor, single point] | – |
| COC(=O)C1=C(C)N(Cc2ccccc2)C(=NCC(C)C)N[C@H]1c1ccccc1 | inconclusive: 12.6 µM [inhibitor, single point] | – |
| O=C(COC(=O)Cc1c(Cl)cccc1Cl)Nc1ccc(OC(F)(F)F)cc1 | inconclusive: 2.51 µM [inhibitor, partial curve, poor fit] | – |
| C#CCOCCOCCOCCNc1nc(N2CCN(C(=O)CCCCCCCCCCNC(=O)[C@H]([C@@H](C)CC)n3cc(CCCCN=C(N)N)nn3)CC2)nc(N2CCN(C(=O)CCCCCCCCCCNC(=O)[C@H](CO)n3cc(CCCSC)nn3)CC2)n1 | inconclusive: 12.6 µM [inhibitor, single point] | – |
| CCSc1nc2ccccc2n1C(=O)/C=C\c1ccc(OC)c(OC)c1 | – | inactive: -12.3% |
| CCOC(=O)C1(CC2CC2)CCN(C(=O)c2cc(C)nc3ccc(CC)cc23)CC1 | – | inactive: -1.38% |
| O=C(Oc1ccccc1C(=O)Oc1ccccc1)c1cccnc1 | inconclusive: 8.91 µM [inhibitor, single point] | – |
| O=C(CCN1C(=O)/C(=C/c2ccccc2)SC1=S)N[C@@H](CO)Cc1ccccc1 | inconclusive: 7.94 µM [inhibitor, single point] | – |
| Cc1ccc(F)cc1NC(=O)C1C2CCC(O2)C1C(=O)O (configuration not stated) | inconclusive: 28.2 µM [inhibitor, single point] | – |
| O=c1c(/C=N/O)c(Nc2ccccc2)nc2ccccn12 | inconclusive: 5.62 µM [inhibitor, partial curve] | – |
| C#CCOCCOCCOCCNc1nc(N2CCN(C(=O)CCCCCCCCCCNC(=O)[C@H](CCCCN)n3cc(C)nn3)CC2)nc(N2CCN(C(=O)CCCCCCCCCCNC(=O)[C@@H]([C@H](C)O)n3cc(C)nn3)CC2)n1 | inconclusive: 7.94 µM [inhibitor, single point] | – |
| COCCCN=C1NN=C(c2cc(C)n(Cc3ccco3)c2C)CS1 | inconclusive: 1.58 µM [inhibitor, full curve, poor fit] | – |
| O=C1Nc2ccc(Br)cc2C12NNc1ccccc1O2 (configuration not stated) | inconclusive: 8.91 µM [inhibitor, single point] | – |
| CCOc1ncccc1C(=O)OCC(=O)Nc1ccc2c(c1)OCCO2 | inconclusive: 6.31 µM [inhibitor, partial curve, poor fit] | – |

| SMILES | Potency | activity change, negative = inhibition |
| --- | --- | --- |
| CNC(=O)[C@@H]1C[C@H]1[C@@H](NC(=O)OCc1ccccc1)c1ccccc1 | – | inactive: -7.73% |
| COc1ccc2c(c1)N(C)/C(=C/c1cccc[n+]1C)S2 | active: 7.94 µM | – |
| Nc1c(C(=O)CSc2nnc(-c3ccccc3)o2)c(=O)[nH]c(=O)n1C1CC1 | inconclusive: 0.316 µM [inhibitor, full curve, poor fit] | – |
| CC(C)c1c(C(=O)N/N=C/c2ccc(Cl)cc2Cl)nnn1-c1nonc1N | inconclusive: 12.6 µM [inhibitor, single point] | – |
| Cc1ccc(C)c(CN2CCC(CNC(=O)CCc3nnc4ccc(N5CCC(C)CC5)nn34)CC2)c1 | inconclusive: 12.6 µM [inhibitor, partial curve, poor fit] | – |
| CCOc1cc(/C=N/O)ccc1OCc1ccc([N+](=O)[O-])cc1 | – | inactive: -0.153% |
| CCOC(=O)C1CCCN(C(=O)Cn2sc3nc(C)cc(C)c3c2=O)C1 (configuration not stated) | inconclusive: 22.4 µM [inhibitor, single point] | – |
| COc1ccc(/C=N/NC(=O)c2[nH]nc3c2CCc2ccccc2-3)cc1OC | inconclusive: 1.41 µM [inhibitor, full curve, poor fit] | – |
| COCCn1cnc2c1c(=O)n(CC(=O)Nc1cc(C)on1)c(=O)n2Cc1ccccc1 | – | inactive: -5.33% |
| CN(C)CCN(C(=O)CN1C(=O)c2ccccc2C1=O)c1nc2cc3c(cc2s1)OCO3 | – | inactive: 4.01% |
| O=C1NC(=Nc2ccc(O)cc2)S/C1=C/c1ccco1 | – | inactive: -13.3% |
| C=CCNC(=O)CC(=O)N/N=C/c1cccc(C)c1 | – | inactive: -1.11% |
| Cc1ccc(C(C[N+](=O)[O-])c2c(C)cc3ccccn23)cc1 (configuration not stated) | inconclusive: 8.91 µM [inhibitor, partial curve] | – |
| CCOCCCNC(=O)c1cc2c(=O)n3cccc(C)c3nc2n1C | inconclusive: 0.0126 µM [inhibitor, full curve, poor fit] | – |
| O=C(C[n+]1cc(Br)cc2ccccc21)c1ccccc1 | inconclusive: 7.08 µM [inhibitor, partial curve, poor fit] | – |
| Cc1noc(C)c1COC(=O)c1ccccc1NC(=O)c1ccco1 | – | inactive: -8.21% |
| COc1ccc(Cl)cc1NC(=O)c1noc(C)c1[N+](=O)[O-] | inconclusive: 1.26 µM [inhibitor, partial curve, poor fit] | – |
| Cc1sc(=NC(=O)c2ccco2)n(C)c1-c1ccccc1 | inconclusive: 1.12 µM [inhibitor, full curve, poor fit] | – |
| O=Cc1ccc(OCC(=O)N2CCc3ccccc32)c(Br)c1 | inconclusive: 2 µM [inhibitor, single point] | – |
| CC(C)(CO)NCC(=O)Nc1cc(C(F)(F)F)cc(NC(=O)CNC(C)(C)CO)c1Cl | – | inactive: 6.61% |
| Cc1ccc(S(=O)(=O)N2CC(O)C[C@H]2C(=O)OCC(=O)N2CCN(c3ccc(F)cc3)CC2)cc1C (some centres not stated) | inconclusive: 12.6 µM [inhibitor, single point] | – |
